Measurements: patent US20250136583A1, “NOVEL SALT FORMS OF ISOCHROMAN-IMIDAZOLE STRUCTURED ALPHA-2A ADRENOCEPTOR AGONIST” (ORION CORPORATION, priority 2022, published 2025)
Structures can show the parent of a compound that is named as a salt. Some results were stated once for a whole list of compounds, not compound by compound.

Test: Chemical stability of the salts (stress at 60° C. and 75% relative humidity, purity by UHPLC)
Assay type: physicochemical
Conditions: 14 days at 60° C. and 75% relative humidity
Protocol: The purity analyses were performed using Agilent UHPLC equipment with PDA/DAD detector at 210 nm wavelength and reverse phase liquid chromatography column Acquity UPLC HSS T3, 100×3.0 mm, 1.8 μm (Waters). The chromatography was performed with gradient run using acetonitrile and phosphate buffer (pH 3.0) as eluents.
The chemical stability of various salts of compound (I) was determined by stressing the salts for 1 and 14 days at 60° C. and 75% relative humidity. The unstressed sample was used as an reference. The purity of the samples were analyzed using UHPLC, and the purity difference between the stressed and reference was calculated.

Row | SMILES | Degradation in 14 days compared to the reference
1 | COc1cccc2c1CCOC2C1=NCCN1 (centres unmarked) [Ethane-1,2-disulfonic acid salt Form 1, 2-(5-methoxyisochroman-1-yl)-4,5-dihydro-1H-imidazole] | less than 1.5%
2 | COc1cccc2c1CCOC2C1=NCCN1 (centres unmarked) [Oxalic acid salt Form 1, 2-(5-methoxyisochroman-1-yl)-4,5-dihydro-1H-imidazole] | less than 1.5%
3 | COc1cccc2c1CCOC2C1=NCCN1 (centres unmarked) [Naphthalene-1,5-disulfonic acid salt Form 1] [2-(5-methoxyisochroman-1-yl)-4,5-dihydro-1H-imidazole] | less than 1.5%
4 | COc1cccc2c1CCOC2C1=NCCN1 (centres unmarked) [Fumaric acid salt Form 2, 2-(5-methoxyisochroman-1-yl)-4,5-dihydro-1H-imidazole] | less than 1.5%
5 | COc1cccc2c1CCOC2C1=NCCN1 (centres unmarked) [Hydrobromic acid salt Form 1, 2-(5-methoxyisochroman-1-yl)-4,5-dihydro-1H-imidazole] | less than 1.5%
